PubChem BioAssay AID602196 | INSERM | 2012
This is one part, drawn at random, of about 23,000 reagents tested. 455 of them (2%) were called active. 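Active includes both protection and sensitisation; some change values fall well beyond the stated -50 to +50 range.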 Unmarked entries are inactive. The numbers tell different reagents against one gene apart. Not stated in the record: the amount of reagent.

Test: 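Modifiers of cisplatin sensitivity in A549 cells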
Cell system: human A549 lung cancer cells
Knock-down reagent: siRNA pair against human genes
Timing: 48 h transfection before cisplatin; time from cisplatin to read-out not stated
Treatment: cisplatin at a dose killing half of control-siRNA cells; exact dose and duration not given
Read-out: 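Shift in cisplatin death relative to control siRNA, from -50 (all cells die) to +50 (no cells die); siRNAs harmful on their own scored 0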
Reading the numbers: two-siRNA summed score (-2 to +2): higher = both siRNAs protect from cisplatin killing; -2 means both sensitise; mean protection from cisplatin (shift in death) and protection from cisplatin (shift in death), siRNA C and protection from cisplatin (shift in death), siRNA D: higher = protection from cisplatin killing
Active means: 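siRNAs harmful alone (LDH or WST-1) get 0; others get +1 for less and -1 for more cisplatin killing; genes are active when the two siRNAs give the same sign, summing to ±2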
Meaning of the calls: active = both siRNAs shift cisplatin killing the same way; inactive = no consistent shift, or siRNA harmful alone

| Gene | reagent no. | two-siRNA summed score (-2 to +2) | mean protection from cisplatin (shift in death) (%) | protection from cisplatin (shift in death), siRNA C (%) | protection from cisplatin (shift in death), siRNA D (%) |
| --- | --- | --- | --- | --- | --- |
| SLC7A4 (GeneID 6545) | 1 | 0 | -3.2 | -3.8 | -2.5 |
| PRNP (GeneID 5621) | 1 | 0 | -10.3 | -9.2 | -11.4 |
| RS1 (GeneID 6247) | 1 | 1 | 9.5 | -5.4 | 24.5 |
| KAT5 (GeneID 10524) | 1 | -1 | -13.7 | -0.3 | -27.2 |
| KAT5 (GeneID 10524) | 2 | -1 | -9.2 | -6.7 | -11.7 |
| MYBL1 (GeneID 4603) | 1 | 0 | 0.4 | 1.9 | -1 |
| LGI1 (GeneID 9211) | 1 | 0 | 14.9 | 12 | 17.8 |
| INPP5J (GeneID 27124) | 1 | 2 (active) | 17.7 | 15.7 | 19.8 |
| IL22 (GeneID 50616) | 1 | 0 | 5.1 | -10.7 | 20.9 |
| AGPS-DT (GeneID 100130691) | 1 | 0 | 13.3 | 24.8 | 1.8 |
| SYNGR3 (GeneID 9143) | 1 | 0 | 16.7 | 31 | 2.4 |
| HECTD4 (GeneID 283450) | 1 | 0 | 1.9 | 5.4 | -1.6 |
| CEP295 (GeneID 85459) | 1 | 0 | -0.6 | 7.9 | -9.2 |
| UVRAG (GeneID 7405) | 1 | -1 | -3.4 | -16.2 | 9.5 |
| NBL1 (GeneID 4681) | 1 | 0 | 4 | 9.5 | -1.6 |
| MGAM2 (GeneID 93432) | 1 | 0 | 0.2 | 7.5 | -7.1 |
| FAM20B (GeneID 9917) | 1 | 0 | 12.2 | 11.7 | 12.7 |
| C6orf89 (GeneID 221477) | 1 | 0 | 9.6 | 10.6 | 8.6 |
| VWA3B (GeneID 200403) | 1 | 0 | 16.1 | 3.9 | 28.2 |
| LOC284274 | 1 | 0 | 5.5 | 1.6 | 9.3 |
| DQX1 (GeneID 165545) | 1 | 0 | 10.5 | 14.4 | 6.7 |
| DCLK1 (GeneID 9201) | 1 | 0 | 12.9 | 0.3 | 25.5 |
| LOC441556 | 1 | 1 | 17.2 | 11.7 | 22.6 |

Laid out differently: entries from further up
CEP295 (GeneID 85459)
- two-siRNA summed score (-2 to +2): 0
- mean protection from cisplatin (shift in death) (%): -0.6
- protection from cisplatin (shift in death), siRNA C (%): 7.9
- protection from cisplatin (shift in death), siRNA D (%): -9.2

UVRAG (GeneID 7405)
- two-siRNA summed score (-2 to +2): -1
- mean protection from cisplatin (shift in death) (%): -3.4
- protection from cisplatin (shift in death), siRNA C (%): -16.2
- protection from cisplatin (shift in death), siRNA D (%): 9.5

NBL1 (GeneID 4681)
- two-siRNA summed score (-2 to +2): 0
- mean protection from cisplatin (shift in death) (%): 4
- protection from cisplatin (shift in death), siRNA C (%): 9.5
- protection from cisplatin (shift in death), siRNA D (%): -1.6
